Source: PubChem BioAssay AID1159618 (Peter MacCallum Cancer Centre, 2016)

Screen: 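Find genes whose knock-down reduces blood or lymphatic endothelial cell migration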 (follow-up of hits)
System: human HMBEC blood microvascular and HDLEC dermal lymphatic endothelial cells
Reagents: siRNA pool against human genes, 40 nM
Read-out: 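Scratch wounds imaged automatically; migrated area scaled to mock-transfected mean and averaged across two replicates, with per-well nuclei counts recorded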
Scale: migration vs mock, HMBEC and migration vs mock, HDLEC: higher = more migration into the scratch
Active means: 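a knock-down counts as active if migrated area in either cell type is under 0.65 of the mock level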
Calls: active = migration impaired; inactive = no change
Shown is an unselected part of 153 deposited reagents. 111 of them (73%) count as active. 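Migration not corrected for cell number; some knock-downs also lowered nuclei counts, so reduced closure may partly reflect fewer cells.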 Unmarked entries are inactive. Not all columns of the deposit are shown. Not given: the time to read-out.

Target gene | cell type with impaired migration | migration vs mock, HMBEC | migration vs mock, HDLEC
PRKG2 | no change in either cell type | 0.701 | 0.783
AKT3 | no change in either cell type | 0.863 | 1.01
ITPKA | impaired only in lymphatic endothelial cells (active) | 0.738 | 0.493
SELPLG | impaired in both blood and lymphatic cells (active) | 0.226 | 0.556
C5AR1 | no change in either cell type | 0.674 | 0.701
FMC1 | impaired in both blood and lymphatic cells (active) | -0.199 | 0.248
TUBA1B | impaired only in blood endothelial cells (active) | 0.408 | 0.678
IL1B | impaired in both blood and lymphatic cells (active) | 0.475 | 0.554
CMTM8 | impaired only in blood endothelial cells (active) | 0.508 | 0.778
P2RX2 | impaired only in lymphatic endothelial cells (active) | 0.691 | 0.371
GBA1 | no change in either cell type | 0.763 | 0.721
LRRC57 | impaired only in lymphatic endothelial cells (active) | 0.917 | 0.573
ABCC3 | impaired only in lymphatic endothelial cells (active) | 0.729 | 0.508
USP25 | impaired in both blood and lymphatic cells (active) | 0.276 | 0.288
BDH2 | no change in either cell type | 0.86 | 0.809
APBA3 | no change in either cell type | 0.839 | 0.752
STK36 | impaired only in blood endothelial cells (active) | 0.604 | 0.898
CWC22 | impaired in both blood and lymphatic cells (active) | 0.505 | 0.366
MPP3 | no change in either cell type | 0.747 | 0.82
APOBEC3D | impaired in both blood and lymphatic cells (active) | 0.549 | 0.574

Targets above whose gene name begins with I or i (2):
Target gene | cell type with impaired migration | migration vs mock, HMBEC | migration vs mock, HDLEC
ITPKA | impaired only in lymphatic endothelial cells (active) | 0.738 | 0.493
IL1B | impaired in both blood and lymphatic cells (active) | 0.475 | 0.554
